Test results: patent publication US20060121449A1, “Method for selection of compounds which inhibit clonal cell growth and use thereof” (priority 2002, published 2006)
Some results were stated once for a whole list of compounds, not compound by compound.

Tested on: polyoma virus transformed BHK21/c13 cells, line S100T1
Assay: Collocation inhibition test: clonal growth in sparsely and densely seeded areas of a cell density gradient of S100T1 cells in soft agar (Exp 13, 17, 19-26);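 note: soft agar cultures in 24-well plates with a cell density gradient in the top layer, compounds applied from DMSO stocks, clonal growth scored in sparse versus dense areas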

Oc1ccc(N=Nc2ccccc2)cc1 [#1, p-hydroxy-azobenzene]
Concentration for an effect similar to 4-OH-OPB, relative to 4-OH-OPB: at least 66 times
